Assay results as given in the supplement of paper PMC5355238.
Structures can show the parent of a compound that is named as a salt. Some of the results follow. Most values lie at the level of the controls, where differences are scatter.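 Reh is a human leukemia cell line; the read-out is the median γH2AX antibody signal in S-phase cells by flow cytometry, with the score counting standard deviations from the median difference of each paired set of plates. Scores above 2.5 were called candidate hits, while scores below -2 mark compounds that lowered the MK1775-induced damage.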

test system: Reh; assay: Z' of S-phase gammaH2AX difference (drug + MK1775 minus drug alone) (Z-score); higher = stronger synergistic S-phase DNA damage with MK1775; conditions: MK1775 concentration 400 nM; first compound 10 µM; 4 h

Structure (SMILES)	Z' of S-phase gammaH2AX difference (Z-score)
CC(N)Cc1c[nH]c2ccc(OCc3cccs3)cc12 (stereo unspecified) + C=CCn1c(=O)c2cnc(Nc3ccc(N4CCN(C)CC4)cc3)nc2n1-c1cccc(C(C)(C)O)n1 [MK1775]	inactive: -0.504
CN1CCC(c2c[nH]c3ccc(O)cc23)CC1 + C=CCn1c(=O)c2cnc(Nc3ccc(N4CCN(C)CC4)cc3)nc2n1-c1cccc(C(C)(C)O)n1 [MK1775]	inactive: -0.725
CC(C)[C@@]1(NC(=O)[C@@H]2C[C@@H]3c4cccc5[nH]cc(c45)C[C@H]3N(C)C2)O[C@@]2(O)[C@@H]3CCCN3C(=O)[C@H](Cc3ccccc3)N2C1=O [Dihydroergocristine methanesulfonate] + C=CCn1c(=O)c2cnc(Nc3ccc(N4CCN(C)CC4)cc3)nc2n1-c1cccc(C(C)(C)O)n1 [MK1775]	inactive: -0.872
CC1Cc2cc3c(cc2C(c2ccc(N)cc2)=NN1)OCO3 (stereo unspecified) + C=CCn1c(=O)c2cnc(Nc3ccc(N4CCN(C)CC4)cc3)nc2n1-c1cccc(C(C)(C)O)n1 [MK1775]	inactive: -0.352
C[N+](C)(C)CC#CCN1CCCC1=O [Oxotremorine methiodide] + C=CCn1c(=O)c2cnc(Nc3ccc(N4CCN(C)CC4)cc3)nc2n1-c1cccc(C(C)(C)O)n1 [MK1775]	inactive: -0.184
NC(=O)c1ccc(OCC(O)CN2CC=C(c3ccc(F)cc3)CC2)cc1 (stereo unspecified) + C=CCn1c(=O)c2cnc(Nc3ccc(N4CCN(C)CC4)cc3)nc2n1-c1cccc(C(C)(C)O)n1 [MK1775]	inactive: -0.106
COc1ccc(CNC(=O)/C=C/c2ccc3[nH]cc(CCN(C)C)c3c2)cc1 + C=CCn1c(=O)c2cnc(Nc3ccc(N4CCN(C)CC4)cc3)nc2n1-c1cccc(C(C)(C)O)n1 [MK1775]	inactive: -0.207
NC(=O)CN1CC(O)CC1=O (stereo unspecified) [Oxiracetam] + C=CCn1c(=O)c2cnc(Nc3ccc(N4CCN(C)CC4)cc3)nc2n1-c1cccc(C(C)(C)O)n1 [MK1775]	inactive: -0.606
CO[C@H]1CC=C2CCN3CCC4=C(CC(=O)OC4)[C@]23C1 [Dihydro-beta-erythroidine hydrobromide] + C=CCn1c(=O)c2cnc(Nc3ccc(N4CCN(C)CC4)cc3)nc2n1-c1cccc(C(C)(C)O)n1 [MK1775]	inactive: 0.989
COc1cc(C=C(C#N)C#N)cc(O)c1O [Tyrphostin AG 34] + C=CCn1c(=O)c2cnc(Nc3ccc(N4CCN(C)CC4)cc3)nc2n1-c1cccc(C(C)(C)O)n1 [MK1775]	inactive: -0.323
C[N+]1(C)CCOC(O)(c2ccc(-c3ccc(C4(O)C[N+](C)(C)CCO4)cc3)cc2)C1 (stereo unspecified) [Hemicholinium-3] + C=CCn1c(=O)c2cnc(Nc3ccc(N4CCN(C)CC4)cc3)nc2n1-c1cccc(C(C)(C)O)n1 [MK1775]	inactive: 1.81
COc1ccc(-n2nc(C(F)(F)F)cc2-c2ccc(Cl)cc2)cc1 + C=CCn1c(=O)c2cnc(Nc3ccc(N4CCN(C)CC4)cc3)nc2n1-c1cccc(C(C)(C)O)n1 [MK1775]	inactive: -0.382
Nc1ccncc1 [4-Aminopyridine] + C=CCn1c(=O)c2cnc(Nc3ccc(N4CCN(C)CC4)cc3)nc2n1-c1cccc(C(C)(C)O)n1 [MK1775]	inactive: 0.247
CCS(=O)(=O)Nc1cccc(C(=C2CCCCC2)c2cnc[nH]2)c1 + C=CCn1c(=O)c2cnc(Nc3ccc(N4CCN(C)CC4)cc3)nc2n1-c1cccc(C(C)(C)O)n1 [MK1775]	inactive: -0.0802
O=C(O)CCCc1ccc(N(CCCl)CCCl)cc1 [Chlorambucil] + C=CCn1c(=O)c2cnc(Nc3ccc(N4CCN(C)CC4)cc3)nc2n1-c1cccc(C(C)(C)O)n1 [MK1775]	inactive: -0.357
NCC(O)c1cc(O)c(O)cc1F (stereo unspecified) [6-Fluoronorepinephrine hydrochloride] + C=CCn1c(=O)c2cnc(Nc3ccc(N4CCN(C)CC4)cc3)nc2n1-c1cccc(C(C)(C)O)n1 [MK1775]	inactive: -0.444
Cc1[nH]c2ccc(O)cc2c1CCN [2-Methyl-5-hydroxytryptamine maleate] + C=CCn1c(=O)c2cnc(Nc3ccc(N4CCN(C)CC4)cc3)nc2n1-c1cccc(C(C)(C)O)n1 [MK1775]	inactive: 0.999
C=CCN1CCc2cccc3c2[C@H]1Cc1ccc(O)c(O)c1-3 [R(-)-N-Allylnorapomorphine hydrobromide] + C=CCn1c(=O)c2cnc(Nc3ccc(N4CCN(C)CC4)cc3)nc2n1-c1cccc(C(C)(C)O)n1 [MK1775]	inactive: 1.6

Taken from above.
C[N+](C)(C)CC#CCN1CCCC1=O [Oxotremorine methiodide] + C=CCn1c(=O)c2cnc(Nc3ccc(N4CCN(C)CC4)cc3)nc2n1-c1cccc(C(C)(C)O)n1 [MK1775] | Z' of S-phase gammaH2AX difference (Z-score): inactive: -0.184
NC(=O)CN1CC(O)CC1=O (stereo unspecified) [Oxiracetam] + C=CCn1c(=O)c2cnc(Nc3ccc(N4CCN(C)CC4)cc3)nc2n1-c1cccc(C(C)(C)O)n1 [MK1775] | Z' of S-phase gammaH2AX difference (Z-score): inactive: -0.606

(next part)

Structure (SMILES)	Z' of S-phase gammaH2AX difference (Z-score)
COc1ccc(C(=O)N2CCCC2=O)cc1 [Aniracetam] + C=CCn1c(=O)c2cnc(Nc3ccc(N4CCN(C)CC4)cc3)nc2n1-c1cccc(C(C)(C)O)n1 [MK1775]	inactive: -0.14
CCCCCCCCCCCCCC(=O)O[C@@H]1[C@@H](C)[C@@]2(O)[C@@H](C=C(CO)C[C@]3(O)C(=O)C(C)=C[C@@H]23)[C@@H]2C(C)(C)[C@]12OC(C)=O [Phorbol 12-myristate 13-acetate] + C=CCn1c(=O)c2cnc(Nc3ccc(N4CCN(C)CC4)cc3)nc2n1-c1cccc(C(C)(C)O)n1 [MK1775]	inactive: 0.0728
C=CCN1CC[C@]23c4c5ccc(O)c4O[C@H]2/C(=N/NC(=O)c2ccccc2)CC[C@@]3(O)[C@H]1C5 [Naloxone benzoylhydrazone] + C=CCn1c(=O)c2cnc(Nc3ccc(N4CCN(C)CC4)cc3)nc2n1-c1cccc(C(C)(C)O)n1 [MK1775]	inactive: 0.752
O=c1[nH]c2ccccc2n1CCCN1CCC(n2c(=O)[nH]c3cc(Cl)ccc32)CC1 [Domperidone] + C=CCn1c(=O)c2cnc(Nc3ccc(N4CCN(C)CC4)cc3)nc2n1-c1cccc(C(C)(C)O)n1 [MK1775]	inactive: 1.64
CC1=C[C@@H]2c3cccc4[nH]cc(c34)C[C@H]2N(C)C1 [Agroclavine] + C=CCn1c(=O)c2cnc(Nc3ccc(N4CCN(C)CC4)cc3)nc2n1-c1cccc(C(C)(C)O)n1 [MK1775]	inactive: 0.247
S=C(NC1CCCCC1)N1CCC(c2cnc[nH]2)CC1 [Thioperamide maleate] + C=CCn1c(=O)c2cnc(Nc3ccc(N4CCN(C)CC4)cc3)nc2n1-c1cccc(C(C)(C)O)n1 [MK1775]	inactive: -0.315
CCN(CC)C(=O)NC1CC2c3cccc4[nH]cc(c34)CC2N(C)C1 (stereo not drawn) [R(+)-Terguride] + C=CCn1c(=O)c2cnc(Nc3ccc(N4CCN(C)CC4)cc3)nc2n1-c1cccc(C(C)(C)O)n1 [MK1775]	inactive: -0.278
CCN(CC)C(=O)N[C@H]1C=C2c3cccc4[nH]cc(c34)C[C@H]2N(C)C1 [R(+)-Lisuride hydrogen maleate] + C=CCn1c(=O)c2cnc(Nc3ccc(N4CCN(C)CC4)cc3)nc2n1-c1cccc(C(C)(C)O)n1 [MK1775]	inactive: 0.301
NC(N)=NOCC[C@H](N)C(=O)O [L-Canavanine sulfate] + C=CCn1c(=O)c2cnc(Nc3ccc(N4CCN(C)CC4)cc3)nc2n1-c1cccc(C(C)(C)O)n1 [MK1775]	inactive: -0.00334
COC[C@H]1OC(=O)c2coc3c2[C@@]1(C)C1=C(C3=O)[C@@H]2CCC(=O)[C@@]2(C)C[C@H]1OC(C)=O [Wortmannin from Penicillium funiculosum] + C=CCn1c(=O)c2cnc(Nc3ccc(N4CCN(C)CC4)cc3)nc2n1-c1cccc(C(C)(C)O)n1 [MK1775]	inactive: -1.96
Clc1cnc(Oc2ccc(Oc3ncc(Cl)cc3Cl)cc2)c(Cl)c1 + C=CCn1c(=O)c2cnc(Nc3ccc(N4CCN(C)CC4)cc3)nc2n1-c1cccc(C(C)(C)O)n1 [MK1775]	inactive: -0.237
CNCCc1ccc(O)c(O)c1 [N-Methyldopamine hydrochloride] + C=CCn1c(=O)c2cnc(Nc3ccc(N4CCN(C)CC4)cc3)nc2n1-c1cccc(C(C)(C)O)n1 [MK1775]	inactive: -0.483
COc1ccc2c(c1)[C@]13CCCC[C@@H]1[C@H](C2)N(C)CC3 [Dextromethorphan hydrobromide monohydrate] + C=CCn1c(=O)c2cnc(Nc3ccc(N4CCN(C)CC4)cc3)nc2n1-c1cccc(C(C)(C)O)n1 [MK1775]	inactive: 1.32
Cc1ccccc1-n1c(Cn2cnc3c(N)ncnc32)nc2cccc(C)c2c1=O + C=CCn1c(=O)c2cnc(Nc3ccc(N4CCN(C)CC4)cc3)nc2n1-c1cccc(C(C)(C)O)n1 [MK1775]	inactive: -0.289
CN(N=O)c1ccc(O)c(O)c1 [Me-3,4-dephostatin] + C=CCn1c(=O)c2cnc(Nc3ccc(N4CCN(C)CC4)cc3)nc2n1-c1cccc(C(C)(C)O)n1 [MK1775]	inactive: -0.223
CCCN1CCC[C@@H]2Cc3nc(N)ncc3C[C@H]21 [Quinelorane dihydrochloride] + C=CCn1c(=O)c2cnc(Nc3ccc(N4CCN(C)CC4)cc3)nc2n1-c1cccc(C(C)(C)O)n1 [MK1775]	inactive: 0.883
C[C@]12CC[C@@H](O)C[C@@H]1CC[C@@H]1[C@@H]2CC[C@]2(C)C(=O)CC[C@@H]12 [Androsterone] + C=CCn1c(=O)c2cnc(Nc3ccc(N4CCN(C)CC4)cc3)nc2n1-c1cccc(C(C)(C)O)n1 [MK1775]	inactive: -0.174
CC(Cc1ccc(O)cc1)NCC(O)c1cc(O)cc(O)c1 (stereo unspecified) [Fenoterol hydrobromide] + C=CCn1c(=O)c2cnc(Nc3ccc(N4CCN(C)CC4)cc3)nc2n1-c1cccc(C(C)(C)O)n1 [MK1775]	inactive: -0.308
